The list shows a part of the results. Many values rest on one well or one pass, so single values are uncertain.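 The apoptosis fraction was the count of cleaved-PARP antibody-stained nuclei relative to all DNA-stained nuclei, imaged in 1,536-well plates. Screening doses were set so most cells survived, and baseline and induced cleaved-PARP levels vary greatly across cell lines.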

The experiment relates to A101D. Briefly: cleaved PARP positive nuclei fraction relative to DMSO control; melanoma cells; higher = more apoptosis. The following applies: library dose: low library concentration; 72 h.
In the case of `CS(=O)(=O)c1ccc(C(=O)Nc2ccc(Cl)c(-c3ccccn3)c2)c(Cl)c1` [vismodegib] + OCc1c[nH]c2ccccc12 [Indole-3-carbinol] (first compound 1 µM, partner dose 0.8 µM), the “cleaved PARP positive nuclei fraction” value was found to be 103%.
The figure for `COc1ccc(C2=N[C@@H](c3ccc(Cl)cc3)[C@@H](c3ccc(Cl)cc3)N2C(=O)N2CCNC(=O)C2)c(OC(C)C)c1` [Nutlin-3] + NC1(c2ccc(-c3nc4ccn5c(=O)[nH]nc5c4cc3-c3ccccc3)cc2)CCC1 [MK2206] (first compound 0.1 µM, partner dose 0.4 µM) is 50.7%; for `COc1ccc(C2=N[C@@H](c3ccc(Cl)cc3)[C@@H](c3ccc(Cl)cc3)N2C(=O)N2CCNC(=O)C2)c(OC(C)C)c1` [Nutlin-3] + Clc1ccc(Nc2nnc(Cc3ccncc3)c3ccccc23)cc1 [vatalanib] (first compound 0.1 µM, partner dose 2 µM) it is 164%; for `Cn1sc(=O)n(Cc2ccccc2)c1=O` + CN(c1ncccc1CNc1nc(Nc2ccc3c(c2)CC(=O)N3)ncc1C(F)(F)F)S(C)(=O)=O [PF562271] (first compound 0.4 µM, partner dose 0.08 µM) it is 48.9%.
The figure for `Cn1cnc2c(F)c(Nc3ccc(Br)cc3Cl)c(C(=O)NOCCO)cc21` [selumetinib] + CNC(=O)c1cc(Oc2ccc(NC(=O)Nc3ccc(Cl)c(C(F)(F)F)c3)cc2)ccn1 [sorafenib] (first compound 0.015 µM, partner dose 0.4 µM) is 152%.
With `NC1(c2ccc(-c3nc4ccn5c(=O)[nH]nc5c4cc3-c3ccccc3)cc2)CCC1` + CCCS(=O)(=O)Nc1ccc(F)c(C(=O)c2c[nH]c3ncc(Cl)cc23)c1F [PLX4720] (first compound 0.4 µM, partner dose 0.08 µM), the “cleaved PARP positive nuclei fraction” value was determined as 52.8%.
The figure for `NC(=O)c1ccc(N(C(N)=O)c2c(F)cccc2F)nc1-c1ccc(F)cc1F` + C#Cc1cccc(Nc2ncnc3cc(OCCOC)c(OCCOC)cc23)c1 [erlotinib] (first compound 0.4 µM, partner dose 0.8 µM) is 142%.
The figure for `C[C@@H](N)c1ccc(C(=O)Nc2ccnc3[nH]ccc23)cc1` + Cn1sc(=O)n(Cc2ccccc2)c1=O [TDZD-8] (first compound 0.4 µM, partner dose 0.4 µM) is 102%; for `CS(=O)(=O)c1ccc(C(=O)Nc2ccc(Cl)c(-c3ccccn3)c2)c(Cl)c1` [vismodegib] + CCCCCCCCc1ccc(CCC(N)(CO)CO)cc1 [fingolimod] (first compound 1 µM, partner dose 2 µM) it is 88.8%.
The figure for `Cn1cnc2c(F)c(Nc3ccc(Br)cc3Cl)c(C(=O)NOCCO)cc21` [selumetinib] + C#Cc1cccc(Nc2ncnc3cc(OCCOC)c(OCCOC)cc23)c1 [erlotinib] (first compound 0.015 µM, partner dose 0.8 µM) is 276%.
On to `CC1(C)CCC(c2ccc(Cl)cc2)=C(CN2CCN(c3ccc(C(=O)NS(=O)(=O)c4ccc(N[C@H](CCN5CCOCC5)CSc5ccccc5)c(S(=O)(=O)C(F)(F)F)c4)cc3)CC2)C1` + CS(=O)(=O)CCNCc1ccc(-c2ccc3ncnc(Nc4ccc(OCc5cccc(F)c5)c(Cl)c4)c3c2)o1 [lapatinib] (first compound 0.4 µM, partner dose 0.8 µM), for which the “cleaved PARP positive nuclei fraction” value amounted to 211%.
In the case of `CC1(C)CCC(c2ccc(Cl)cc2)=C(CN2CCN(c3ccc(C(=O)NS(=O)(=O)c4ccc(N[C@H](CCN5CCOCC5)CSc5ccccc5)c(S(=O)(=O)C(F)(F)F)c4)cc3)CC2)C1` + O=C(O)[C@@H]1[O][Sb](=[O])([O][Sb]2(=[O])[O][C@H]([C@H](O)CO)[C@H](O)[C@H](C(=O)O)[O]2)[O][C@H]([C@H](O)CO)[C@@H]1O [stibogluconate] (first compound 0.4 µM, partner dose 2 µM), the “cleaved PARP positive nuclei fraction” value was 310%.
Turning to `CC1(C)CCC(c2ccc(Cl)cc2)=C(CN2CCN(c3ccc(C(=O)NS(=O)(=O)c4ccc(N[C@H](CCN5CCOCC5)CSc5ccccc5)c(S(=O)(=O)C(F)(F)F)c4)cc3)CC2)C1` + Nc1ccn([C@@H]2O[C@H](CO)[C@@H](O)C2(F)F)c(=O)n1 [gemcitabine] (first compound 0.4 µM, partner dose 0.0004 µM), the “cleaved PARP positive nuclei fraction” value was 113%.
For `C[C@]1(O)C[C@@H](c2nc(-c3ccc4ccc(-c5ccccc5)nc4c3)c3c(N)nccn32)C1` + CC(=O)O[C@@]12CO[C@@H]1C[C@H](O)[C@@]1(C)C(=O)[C@H](O)C3=C(C)[C@@H](OC(=O)[C@H](O)[C@@H](NC(=O)OC(C)(C)C)c4ccccc4)C[C@@](O)([C@@H](OC(=O)c4ccccc4)[C@H]21)C3(C)C [Docetaxel] (first compound 0.4 µM, partner dose 0.0001 µM), the “cleaved PARP positive nuclei fraction” value amounted to 184%.
Take `CC1(C)CCC(c2ccc(Cl)cc2)=C(CN2CCN(c3ccc(C(=O)NS(=O)(=O)c4ccc(N[C@H](CCN5CCOCC5)CSc5ccccc5)c(S(=O)(=O)C(F)(F)F)c4)cc3)CC2)C1` + Cn1sc(=O)n(Cc2ccccc2)c1=O [TDZD-8] (first compound 0.4 µM, partner dose 0.4 µM): the “cleaved PARP positive nuclei fraction” value was determined as 171%.
Regarding `C[C@]1(O)C[C@@H](c2nc(-c3ccc4ccc(-c5ccccc5)nc4c3)c3c(N)nccn32)C1` + OCc1c[nH]c2ccccc12 [Indole-3-carbinol] (first compound 0.4 µM, partner dose 0.8 µM), the “cleaved PARP positive nuclei fraction” value was 127%.
With `CN(c1ncccc1CNc1nc(Nc2ccc3c(c2)CC(=O)N3)ncc1C(F)(F)F)S(C)(=O)=O` + C[C@]1(c2nc3c(C(N)=O)cccc3[nH]2)CCCN1 [Veliparib] (first compound 0.08 µM, partner dose 1.4 µM), the “cleaved PARP positive nuclei fraction” value came out at 156%.
Consider `C[C@]1(O)C[C@@H](c2nc(-c3ccc4ccc(-c5ccccc5)nc4c3)c3c(N)nccn32)C1` + CCCS(=O)(=O)Nc1ccc(F)c(C(=O)c2c[nH]c3ncc(Cl)cc23)c1F [PLX4720] (first compound 0.4 µM, partner dose 0.08 µM), for which the “cleaved PARP positive nuclei fraction” value worked out at 143%.
The figure for `CN(c1ncccc1CNc1nc(Nc2ccc3c(c2)CC(=O)N3)ncc1C(F)(F)F)S(C)(=O)=O` + Cn1c(=O)n(-c2ccc(C(C)(C)C#N)cc2)c2c3cc(-c4cnc5ccccc5c4)ccc3ncc21 [NVP-BEZ235] (first compound 0.08 µM, partner dose 0.004 µM) is 108%; for `NC(=O)c1ccc(N(C(N)=O)c2c(F)cccc2F)nc1-c1ccc(F)cc1F` + CC(=O)c1c(C)c2cnc(Nc3ccc(N4CCNCC4)cn3)nc2n(C2CCCC2)c1=O [palbociclib] (first compound 0.4 µM, partner dose 0.04 µM) it is 57.9%; for `CN(c1ncccc1CNc1nc(Nc2ccc3c(c2)CC(=O)N3)ncc1C(F)(F)F)S(C)(=O)=O` + CCCS(=O)(=O)Nc1ccc(F)c(C(=O)c2c[nH]c3ncc(Cl)cc23)c1F [PLX4720] (first compound 0.08 µM, partner dose 0.08 µM) it is 39.9%.
The figure for `CCCCCCCCc1ccc(CCC(N)(CO)CO)cc1` [fingolimod] + Nc1nc(F)nc2c1ncn2[C@@H]1O[C@H](CO)[C@@H](O)[C@@H]1O [fludarabine] (first compound 2 µM, partner dose 0.2 µM) is 105%.
The figure for `CCCCCCCCc1ccc(CCC(N)(CO)CO)cc1` [fingolimod] + CC(=O)c1c(C)c2cnc(Nc3ccc(N4CCNCC4)cn3)nc2n(C2CCCC2)c1=O [palbociclib] (first compound 2 µM, partner dose 0.04 µM) is 114%; for `CC(=O)O[C@@]12CO[C@@H]1C[C@H](O)[C@@]1(C)C(=O)[C@H](O)C3=C(C)[C@@H](OC(=O)[C@H](O)[C@@H](NC(=O)OC(C)(C)C)c4ccccc4)C[C@@](O)([C@@H](OC(=O)c4ccccc4)[C@H]21)C3(C)C` [Docetaxel] + Cc1cc(Nc2cc(N3CCN(C)CC3)nc(/C=C/c3ccccc3)n2)n[nH]1 [ENMD2076] (first compound 0.0001 µM, partner dose 0.04 µM) it is 78%; for `CC1(C)CCC(c2ccc(Cl)cc2)=C(CN2CCN(c3ccc(C(=O)NS(=O)(=O)c4ccc(N[C@H](CCN5CCOCC5)CSc5ccccc5)c(S(=O)(=O)C(F)(F)F)c4)cc3)CC2)C1` + CCCS(=O)(=O)Nc1ccc(F)c(C(=O)c2c[nH]c3ncc(Cl)cc23)c1F [PLX4720] (first compound 0.4 µM, partner dose 0.08 µM) it is 250%.
For `CC(=O)O[C@@]12CO[C@@H]1C[C@H](O)[C@@]1(C)C(=O)[C@H](O)C3=C(C)[C@@H](OC(=O)[C@H](O)[C@@H](NC(=O)OC(C)(C)C)c4ccccc4)C[C@@](O)([C@@H](OC(=O)c4ccccc4)[C@H]21)C3(C)C` [Docetaxel] + Cn1c(Nc2ccc(C(F)(F)F)cc2)nc2cc(Oc3ccnc(-c4ncc(C(F)(F)F)[nH]4)c3)ccc21 [CHIR265] (first compound 0.0001 µM, partner dose 0.08 µM), the “cleaved PARP positive nuclei fraction” value turned out to be 211%.
In the case of `Cn1sc(=O)n(Cc2ccccc2)c1=O` + CC(C)C[C@H](NC(=O)[C@H](Cc1ccccc1)NC(=O)c1cnccn1)B(O)O [Bortezomib] (first compound 0.4 µM, partner dose 0.001 µM), the “cleaved PARP positive nuclei fraction” value amounted to 78%.
The figure for `COc1ccc(C2=N[C@@H](c3ccc(Cl)cc3)[C@@H](c3ccc(Cl)cc3)N2C(=O)N2CCNC(=O)C2)c(OC(C)C)c1` [Nutlin-3] + C=CCNC1=C2C[C@@H](C)C[C@H](OC)[C@H](O)[C@@H](C)/C=C(\C)[C@H](OC(N)=O)[C@@H](OC)/C=C\C=C(/C)C(=O)NC(=CC1=O)C2=O [Tanespimycin] (first compound 0.1 µM, partner dose 0.002 µM) is 199%.

The values are drawn from the supplement of paper PMC4604168 (melanoma cell lines).
